We go through one molecule from paper PMC11142380.

The target in this experiment is T1, FAD8–YFP–HA (fatty acid desaturase 8 fused to the YFP and HA tags) (Arabidopsis thaliana) (UniProt P48622).
T1 sequence: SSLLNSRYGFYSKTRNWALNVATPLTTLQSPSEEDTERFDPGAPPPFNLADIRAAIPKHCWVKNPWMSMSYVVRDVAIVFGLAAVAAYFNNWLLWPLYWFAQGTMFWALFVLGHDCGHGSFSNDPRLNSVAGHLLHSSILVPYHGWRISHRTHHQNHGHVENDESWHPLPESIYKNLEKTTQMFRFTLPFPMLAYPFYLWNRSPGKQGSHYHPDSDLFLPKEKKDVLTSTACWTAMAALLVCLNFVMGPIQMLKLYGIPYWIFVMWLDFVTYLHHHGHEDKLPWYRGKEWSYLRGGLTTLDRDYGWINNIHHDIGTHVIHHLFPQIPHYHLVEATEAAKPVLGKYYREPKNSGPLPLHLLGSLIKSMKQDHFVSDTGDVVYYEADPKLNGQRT
Nature of the experiment: co-IP; membrane fractions (~840 µg) of leaves fixed with 1% formaldehyde, solubilised in 1% digitonin and 1% n-dodecyl-β-D-maltoside; anti-HA magnetic beads, 4 °C, 1.5 h; eluate immunoblotted with anti-HA, anti-2-Cys Prxs and anti-CHL27; WT plants as control. (In western blotting, separated proteins are transferred to a membrane and probed.)

These are yes or no findings as the source states them, for the method shown. Binding seen in cells or lysates may run through a third protein. Where a sequence is shown, tags or fusion partners need not be part of it.

B1: COPPER RESPONSE DEFECT 1 (CHL27) (protein, UniProt Q9M591 37-409)
chain: MSASSSPPPPTTATSKSKKGTKKEIQESLLTPRFYTTDFEEMEQLFNTEINKNLNEAEFEALLQEFKTDYNQTHFVRNKEFKEAADKLQGPLRQIFVEFLERSCTAEFSGFLLYKELGRRLKKTNPVVAEIFSLMSRDEARHAGFLNKGLSDFNLALDLGFLTKARKYTFFKPKFIFYATYLSEKIGYWRYITIYRHLKENPEFQCYPIFKYFENWCQDENRHGDFFSALMKAQPQFLNDWQAKLWSRFFCLSVYVTMYLNDCQRTNFYEGIGLNTKEFDMHVIIETNRTTARIFPAVLDVENPEFKRKLDRMVVSYEKLLAIGETDDASFIKTLKRIPLVTSLASEILAAYLMPPVESGSVDFAEFEPNLVY
In the case of B1, the binding result was “no binding”.
